Experimental data: publication PMC6746865, “Identification of telomerase RNAs in species of the Yarrowia clade provides insights into the co-evolution of telomerase, telomeric repeats and telomere-binding proteins”
For at least one entry, the source does not settle the construct or the ends of the probe. Weaker means in comparison with the reference protein, sequence or condition of that experiment. Where a protein sequence is shown, tags need not be part of it. At least one verdict was read from the data and is not stated in words by the source.

Target: T1, Tay1p (YlTay1p) (Yarrowia lipolytica) (UniProt Q6C9I6)
T1 sequence (looked up, limits assumed): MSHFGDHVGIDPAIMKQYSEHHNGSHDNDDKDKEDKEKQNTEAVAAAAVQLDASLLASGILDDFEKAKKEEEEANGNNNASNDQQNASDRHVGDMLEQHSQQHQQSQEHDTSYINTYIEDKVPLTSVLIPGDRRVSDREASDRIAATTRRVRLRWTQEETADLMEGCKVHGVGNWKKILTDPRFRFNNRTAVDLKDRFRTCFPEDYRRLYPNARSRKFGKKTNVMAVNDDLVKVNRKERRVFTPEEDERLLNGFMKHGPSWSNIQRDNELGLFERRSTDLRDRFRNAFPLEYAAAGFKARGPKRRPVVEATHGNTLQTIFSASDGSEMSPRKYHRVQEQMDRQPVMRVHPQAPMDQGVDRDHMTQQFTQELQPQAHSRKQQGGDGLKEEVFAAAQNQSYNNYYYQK
Experiment: EMSA
Details: 20 mM HEPES-NaOH pH 7.3, 100 mM NaCl, 16 nM dsDNA probe (3-fold molar excess of unlabelled C strand used in annealing), 10 min at room temperature, recombinant protein, label: 5'-32P on G strand

Sequence	binding result (affinity comparable to N1)	binding result (slightly decreased affinity vs N1)
TTAGCCAGGGTTAGCCAGGG (double strand) [Y. phangngensis telomeric probe CphaTEL (2 repeats)]	binds	–
TTAGCGAGGGTTAGCGAGGG (double strand) [Y. bubula telomeric probe YbubTEL (2 repeats)]	binds	–
TTAGGCAGGGTTAGGCAGGG (double strand) [Y. alimentaria telomeric probe CaliTEL (2 repeats)]	binds	–
TTATACAGGGTTATACAGGG (double strand) [Y. yakushimensis telomeric probe YyakTEL (2 repeats)]	binds	–
TTGACGAGAGTTGACGAGAG (double strand) [C. hispaniensis telomeric probe ChisTEL (2 repeats)]	–	binds more weakly
